Results published in the supplement of paper PMC8728848.
The list shows a part of the results.

Columns and labels:
Assay in all cases: glycan array binding signal (z-score within array); higher = stronger binding
Conditions in all cases: glycan notation: IUPAC condensed, linker removed
[1] = target: Gal(b1-4)GlcNAc(b1-3)Gal(b1-4)GlcNAc(b1-6)[Gal(b1-3)]GalNAc
Outline: (§1)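 The Consortium for Functional Glycomics database supplied 3228 glycan arrays, of which those lacking an available protein sequence were dropped. The binding signal, a within-array Z-score, was averaged across arrays of the same protein sequence and across linkers. Negative scores can be read as non-binding.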

[2] = target: Gal(b1-4)GlcNAc(b1-3)Gal(b1-4)[Fuc(a1-3)]GlcNAc(b1-3)Gal(b1-4)[Fuc(a1-3)]GlcNAc
Outline: as §1

[3] = target: Gal(b1-4)GlcNAc(b1-3)GalNAc
Outline: as §1

[4] = target: Gal(b1-4)GlcNAc(b1-3)[Fuc(a1-3)GlcNAc(b1-6)]Gal(b1-4)Glc
Outline: as §1

[5] = target: Gal(b1-4)GlcNAc(b1-3)[Gal(b1-4)GlcNAc(b1-6)]Gal(b1-4)GlcNAc
Outline: as §1

[6] = target: Gal(b1-4)GlcNAc(b1-3)[GlcNAc(b1-6)]Gal(b1-4)GlcNAc
Outline: as §1

[7] = target: Gal(b1-4)GlcNAc(b1-6)Gal(b1-4)GlcNAc
Outline: as §1

[8] = target: Gal(b1-4)GlcNAc(b1-6)GalNAc
Outline: as §1

[9] = target: Gal(b1-4)GlcNAc(b1-6)[Gal(b1-3)]GalNAc
Outline: as §1

[10] = target: Gal(b1-4)GlcNAc(b1-6)[Gal(b1-4)GlcNAc(b1-3)]GalNAc
Outline: as §1

Gal(b1-4)GlcNAc6P = target: Gal(b1-4)GlcNAc6P
Outline: as §1

Gal(b1-6)Gal = target: Gal(b1-6)Gal
Outline: as §1

Gal3S(b1-3)GalNAc = target: Gal3S(b1-3)GalNAc
Outline: as §1

Gal3S(b1-3)GlcNAc = target: Gal3S(b1-3)GlcNAc
Outline: as §1

[11] = target: Gal3S(b1-3)[Fuc(a1-4)]GlcNAc
Outline: as §1

Gal3S(b1-4)Glc = target: Gal3S(b1-4)Glc
Outline: as §1

Gal3S(b1-4)Glc6S = target: Gal3S(b1-4)Glc6S
Outline: as §1

Gal3S(b1-4)GlcNAc = target: Gal3S(b1-4)GlcNAc
Outline: as §1

[12] = target: Gal3S(b1-4)[Fuc(a1-3)]Glc6S
Outline: as §1

[13] = target: Gal3S(b1-4)[Fuc(a1-3)]GlcNAc
Outline: as §1

[14] = target: Gal3S(b1-4)[Fuc(a1-3)]GlcNAc6S
Outline: as §1

Gal3S4S(b1-4)GlcNAc = target: Gal3S4S(b1-4)GlcNAc
Outline: as §1

Gal3S6S(b1-4)GlcNAc = target: Gal3S6S(b1-4)GlcNAc
Outline: as §1

Gal3S6S(b1-4)GlcNAc6S = target: Gal3S6S(b1-4)GlcNAc6S
Outline: as §1

Gal4S(b1-4)GlcNAc = target: Gal4S(b1-4)GlcNAc
Outline: as §1

Gal4S6S(b1-4)GlcNAc = target: Gal4S6S(b1-4)GlcNAc
Outline: as §1

Gal6P(b1-4)GlcNAc = target: Gal6P(b1-4)GlcNAc
Outline: as §1

Gal6S(b1-3)GlcNAc = target: Gal6S(b1-3)GlcNAc
Outline: as §1

Gal6S(b1-3)GlcNAc6S = target: Gal6S(b1-3)GlcNAc6S
Outline: as §1

Gal6S(b1-4)Glc = target: Gal6S(b1-4)Glc
Outline: as §1

Gal6S(b1-4)Glc6S = target: Gal6S(b1-4)Glc6S
Outline: as §1

Gal6S(b1-4)GlcNAc = target: Gal6S(b1-4)GlcNAc
Outline: as §1

Gal6S(b1-4)GlcNAc6S = target: Gal6S(b1-4)GlcNAc6S
Outline: as §1

GalNAc(a1-3)Gal = target: GalNAc(a1-3)Gal
Outline: as §1

GalNAc(a1-3)GalNAc = target: GalNAc(a1-3)GalNAc
Outline: as §1

[15] = target: GalNAc(a1-3)GalNAc(b1-3)Gal(a1-4)Gal(b1-4)Glc
Outline: as §1

[16] = target: GalNAc(a1-3)GalNAc(b1-3)Gal(a1-4)Gal(b1-4)GlcNAc
Outline: as §1

B1: TAL6-4LysM (Trichoderma atroviride) (protein)
chain: AADSIPSISPTGIITPTPTQSGMVSNCNKFYDVHSNDGCSAIASSQHVDLSSLYKWNPAIKTDCSGLQASVYVCIGILTTSMSTTSKLPTTTSKPSTTSKPPTGITTPTPTQSGMVKNCNKFYDVHSGDGCSAIASSQKVNLSSFYLWNPAVKTDCSGLQASVFVCIGTLTTSMSTTTSKLPTTTSKPSTTSKPPTGIITPTPTQNGMVKNCNKFYDVHSGDGCSAIASSQKVNLSSFYLWNPAVKTDCSGLQASVFVCVGTATTTTAAGITTPTPTQSGMVSGCNKFYDVHAGDGCSAIASSQKIALSSLYKWNPAVKTDCSGLQASVYICIGVGNAAAARVTGALEQKLISEEDLNSAVDHHHHHH
[1]
  glycan array binding signal (z-score): 1.17
[2]
  glycan array binding signal (z-score): -0.176
[3]
  glycan array binding signal (z-score): -0.187
[4]
  glycan array binding signal (z-score): -1.77
[5]
  glycan array binding signal (z-score): 0.074
[6]
  glycan array binding signal (z-score): 0.861
[7]
  glycan array binding signal (z-score): -0.276
[8]
  glycan array binding signal (z-score): 0.76
[9]
  glycan array binding signal (z-score): -0.122
[10]
  glycan array binding signal (z-score): 0.866
Gal(b1-4)GlcNAc6P
  glycan array binding signal (z-score): 1.53
Gal(b1-6)Gal
  glycan array binding signal (z-score): -0.059
Gal3S(b1-3)GalNAc
  glycan array binding signal (z-score): -1.27
Gal3S(b1-3)GlcNAc
  glycan array binding signal (z-score): 1.92
[11]
  glycan array binding signal (z-score): -1.3
Gal3S(b1-4)Glc
  glycan array binding signal (z-score): 1.82
Gal3S(b1-4)Glc6S
  glycan array binding signal (z-score): 0.91
Gal3S(b1-4)GlcNAc
  glycan array binding signal (z-score): -0.395
[12]
  glycan array binding signal (z-score): 0.417
[13]
  glycan array binding signal (z-score): -0.031
[14]
  glycan array binding signal (z-score): 0.652
Gal3S4S(b1-4)GlcNAc
  glycan array binding signal (z-score): -0.189
Gal3S6S(b1-4)GlcNAc
  glycan array binding signal (z-score): 2.28
Gal3S6S(b1-4)GlcNAc6S
  glycan array binding signal (z-score): 1.88
Gal4S(b1-4)GlcNAc
  glycan array binding signal (z-score): 0.035
Gal4S6S(b1-4)GlcNAc
  glycan array binding signal (z-score): 1.94
Gal6P(b1-4)GlcNAc
  glycan array binding signal (z-score): 0.133
Gal6S(b1-3)GlcNAc
  glycan array binding signal (z-score): -1.32
Gal6S(b1-3)GlcNAc6S
  glycan array binding signal (z-score): 0.018
Gal6S(b1-4)Glc
  glycan array binding signal (z-score): -0.536
Gal6S(b1-4)Glc6S
  glycan array binding signal (z-score): 2.23
Gal6S(b1-4)GlcNAc
  glycan array binding signal (z-score): 0.994
Gal6S(b1-4)GlcNAc6S
  glycan array binding signal (z-score): -0.398
GalNAc(a1-3)Gal
  glycan array binding signal (z-score): 0.613
GalNAc(a1-3)GalNAc
  glycan array binding signal (z-score): 0.657
[15]
  glycan array binding signal (z-score): 0.084
[16]
  glycan array binding signal (z-score): 0.071
